Laboratory results as given in publication PMC9965349 (Viruses, 2023).
No constants are given. Whether binding was seen depends on the method and setting.

Amino acid sequences for entries named in this document (tags omitted). Residues count along the entry.
UniProt P02769, residues 25-607: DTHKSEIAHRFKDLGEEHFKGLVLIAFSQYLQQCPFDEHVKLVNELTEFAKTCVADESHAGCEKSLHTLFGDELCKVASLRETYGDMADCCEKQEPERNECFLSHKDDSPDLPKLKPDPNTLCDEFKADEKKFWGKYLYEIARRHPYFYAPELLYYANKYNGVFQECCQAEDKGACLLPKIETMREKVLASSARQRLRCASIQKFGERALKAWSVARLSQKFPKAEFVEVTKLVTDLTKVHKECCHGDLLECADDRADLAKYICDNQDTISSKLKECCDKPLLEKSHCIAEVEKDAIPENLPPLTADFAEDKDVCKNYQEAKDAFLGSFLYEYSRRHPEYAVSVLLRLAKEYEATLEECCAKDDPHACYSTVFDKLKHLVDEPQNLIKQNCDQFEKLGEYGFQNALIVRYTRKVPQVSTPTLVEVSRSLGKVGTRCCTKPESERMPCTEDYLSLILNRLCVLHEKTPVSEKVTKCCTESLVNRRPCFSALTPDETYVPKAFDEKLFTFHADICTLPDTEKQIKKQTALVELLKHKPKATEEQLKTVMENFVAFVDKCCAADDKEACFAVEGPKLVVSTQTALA

Target: BSA (bovine (by the name BSA)) (UniProt P02769)
Experiment: ELISA; both purified

Binder: WHFNRP [peptide 115042]
- binding: no binding (tested: peptide 1 μg/mL; BSA coated at 10 μg/mL)

Binder: FWKEAK [peptide 110616]
- binding: no binding (tested: peptide 1 μg/mL; BSA coated at 10 μg/mL)
